Data: publication PMC5686073, “Suppression of SRCAP chromatin remodelling complex and restriction of lymphoid lineage commitment by Pcid2” (Nature Communications, 2017)
No constants are given. Whether binding was seen depends on the method and setting. In cells and extracts the contact can be indirect. Some results given as binding are weak or reduced against the parent protein; the word gives no strength.

Sequences of proteins named here, by UniProt entry; tags and fusion partners are left off.
UniProt Q8BFV2: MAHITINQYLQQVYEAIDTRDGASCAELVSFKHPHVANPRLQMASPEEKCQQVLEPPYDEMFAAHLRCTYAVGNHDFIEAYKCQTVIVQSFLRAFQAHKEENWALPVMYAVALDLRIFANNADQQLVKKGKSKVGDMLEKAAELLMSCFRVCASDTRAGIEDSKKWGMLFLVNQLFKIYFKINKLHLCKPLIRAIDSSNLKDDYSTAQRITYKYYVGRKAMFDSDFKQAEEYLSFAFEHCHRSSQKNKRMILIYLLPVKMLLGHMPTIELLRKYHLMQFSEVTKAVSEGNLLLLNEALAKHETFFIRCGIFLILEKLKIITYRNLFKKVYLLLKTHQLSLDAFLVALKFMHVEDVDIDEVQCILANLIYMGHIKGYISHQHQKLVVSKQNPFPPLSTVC

T1: ZNHIT1 (endogenous, mouse LSK and MPP cells) (mouse (endogenous in LSK and MPP cells)) (UniProt Q8R331)
T1 sequence: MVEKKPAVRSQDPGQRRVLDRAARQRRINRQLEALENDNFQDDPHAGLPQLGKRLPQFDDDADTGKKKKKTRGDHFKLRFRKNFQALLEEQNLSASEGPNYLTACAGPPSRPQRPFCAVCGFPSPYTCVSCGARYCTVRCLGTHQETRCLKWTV


Assays:
[1] = target: T1, ZNHIT1 (endogenous, mouse LSK and MPP cells) (mouse (endogenous in LSK and MPP cells)); assay: co-IP; mouse MPP lysates, anti-SRCAP antibody and protein A/G beads, 4 °C overnight; recombinant PCID2 protein added at different concentrations displaces ZNHIT1 of the lysate from SRCAP; only the binder purified
[2] = target: PCID2 (endogenous, mouse LSK cells) (mouse (endogenous in LSK cells)) (UniProt Q8BFV2); assay: co-IP; mouse LSK lysates incubated with anti-PCID2 antibody, rabbit IgG as control; ZNHIT1 detected by immunoblotting

binding [1]	binding [2]	Molecule
binds	–	His-PCID2 (PCI domain-containing protein 2) (from UniProt Q8BFV2 1-399)
–	binds	GST-ZNHIT1 (Zinc finger HIT-type containing 1) (natural protein, mouse, UniProt Q8R331 1-154, looked up, ZNHIT1 (Zinc finger HIT-type containing 1, p18^hamlet), mouse Znhit1 cloned into pGEX-6P-1; Vector pGEX-6P-1; also called GST-tagged ZNHIT1; p18^hamlet; source: E. coli, purified (Glutathione Sepharose 4B)) MVEKKPAVRSQDPGQRRVLDRAARQRRINRQLEALENDNFQDDPHAGLPQLGKRLPQFDDDADTGKKKKKTRGDHFKLRFRKNFQALLEEQNLSASEGPNYLTACAGPPSRPQRPFCAVCGFPSPYTCVSCGARYCTVRCLGTHQETRCLKWTV
